Source: PubChem BioAssay AID1259425 (University of Nebraska Medical Center, 2018)
Purpose: 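Seek colon cancer weak points whose silencing resembles KSR1 loss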 (primary screen). Cells: HCT116 human colon cancer cells. Reagent: siRNA pool against human genes, 50 nM siRNA. Measured: 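After 50 nM siRNA pool, branched-DNA assay measures six marker transcripts per well, minus blank, normalised to the geometric mean of two housekeeping transcripts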. Scale: BNIP3L mRNA: higher = more BNIP3L transcript after knockdown.
In all, the deposit lists about 14,000 reagents; shown is a part drawn at random. Not all columns of the deposit are shown. Not given: the time to read-out.

Gene | BNIP3L mRNA, set 1
ULK3 (GeneID 25989) | 0.134
CMKLR2 (GeneID 2825) | 0.182
GNAI2 (GeneID 2771) | 0.104
CD300A (GeneID 11314) | 0.0736
SGK3 (GeneID 23678) | 0.0513
HOXA3 (GeneID 3200) | 0.13
ARPP19 (GeneID 10776) | 0.0808
AMPD1 (GeneID 270) | 0.0978

Next part, starting with the last 2 of the part before.
Gene | BNIP3L mRNA, set 1
ARPP19 (GeneID 10776) | 0.0808
AMPD1 (GeneID 270) | 0.0978
LSM14A (GeneID 26065) | 0.23
MYO10 (GeneID 4651) | 0.164
KCNMB1 (GeneID 3779) | 0.093
ELK4 (GeneID 2005) | 0.125
VEPH1 (GeneID 79674) | 0.118
PERP (GeneID 64065) | 0.102
ZFX (GeneID 7543) | 0.123
ENPP1 (GeneID 5167) | 0.11
SLC17A5 (GeneID 26503) | 0.0539
FAHD1 (GeneID 81889) | 0.177
ZNF711 (GeneID 7552) | 0.201
AGTRAP (GeneID 57085) | 0.155
